Experimental findings from PubChem BioAssay AID493014 (National Center for Advancing Translational Sciences (NCATS), 2011) are described below.

Several values for one entry are separate records, joined by “and”; a condition that tells them apart may be missing. Equal entries are not always repeated. The list shows a part of the results. Further columns of the screen follow, without active or inactive calls. Most of these compounds were active or inconclusive in the main read-out, so they are no random draw. Potencies come from curve fits of mixed quality, noted in brackets.

The assay in a line: qHTS Assay to Find Inhibitors of Chronic Active B-Cell Receptor Signaling. To be noted: ABC-DLBCL IkBa-CBG/CBR reporter, luminescence ratio (green luciferase fused to IkBa over red control in TMD8 lymphoma cells), 4 h. Summed up:
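TMD8 human ABC-DLBCL cells with doxycycline-inducible IκBα–green luciferase fusion and unfused red luciferase, in 0.5% FBS medium; compounds up to 46 uM, 4 h at 37C. Green/red luminescence ratio, filter-overlap corrected, fitted to concentration-response curves.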
On the technique in general: In qHTS, concentration-response curves come from the screen itself.

Where [1] appears, read: measured here: CBR red luminescence, cell number.
[2] abbreviates: measured here: IkBa-CBG green luminescence.

The term AC50 denotes the midpoint of the concentration-response curve, whichever way the signal moves.

Consider `C[C@H]1CCC/C=C/[C@@H]2C[C@H](O)C[C@H]2[C@H](O)/C=C/C(=O)O1`, for which the AC50 under setting [1] is 231 nM [falling, full curve] and 580 nM [falling, full curve].

Regarding `CC(C)C12CN3CCN(CC(C3)/C1=N\O)C2`, the concentration at half-maximal activity (AC50) under setting [1] is 18.4 µM [rising, partial curve, poor fit].

Consider `CC1(C)C[C@H]2C=C(C=O)[C@]3(C=O)C[C@]3(C)[C@H]2C1`, for which the concentration at half-maximal activity (AC50) was 4.61 µM [falling, full curve] under setting [1] and 5.8 µM [rising, full curve] under setting [2].

In the case of `Cc1ccc(C(=O)Nc2ccc3ncccc3c2)cc1`, the AC50 under setting [1] is 14.1 µM [falling, single point].

Take `O=C(NCCN1CCN(c2ccccc2)CC1)Nc1ccc(Cl)cc1`: the AC50 under setting [1] is 14.1 µM [rising, partial curve, poor fit].

In the case of `CCOc1cc(C2C(C#N)=C(N)Oc3c2c(=O)oc2ccccc32)ccc1OC(=O)c1cccs1` (centres undefined), under setting [1], the half-maximal activity concentration (AC50) is 20.6 µM [falling, partial curve].

`Cc1ccc(S(=O)(=O)c2nc(-c3ccccc3Cl)oc2N(C)C2CCN(C)CC2)cc1`: under setting [1], the AC50 is 14.6 µM [falling, single point].

Regarding `COCCO[C@H]1CCC2C3CC=C4C[C@@H](O)CC[C@]4(C)C3CC[C@@]21C` (some centres undefined), the AC50 under setting [1] was 25.9 µM [rising, single point].

Consider `CC/C(=N\Nc1ccccc1)c1c(O)n(C)c(=O)n(C)c1=O`, for which the half-maximal activity concentration (AC50) under setting [1] is 10.3 µM [falling, partial curve, poor fit].

For `O=C1c2ccccc2C(=O)N1SC1CCCCC1`, under setting [1], the concentration at half-maximal activity (AC50) was 22.4 µM [falling, single point].

Consider `CC(C)CCCn1c(O)c(/C=C2/C=CC=N2)c(=O)[nH]c1=O`, for which the concentration at half-maximal activity (AC50) by setting is: under setting [1], 16.4 µM [rising, partial curve]; under setting [2], 20.6 µM [falling, partial curve, poor fit].

In the case of `CC(C)=CCC12CN3CCN(CC(C3)C1=O)C2`, the AC50 under setting [1] is 7.31 µM [falling, single point].

Turning to `COC(=O)C(C)n1nnc2sc(-c3ccccc3)cc2c1=O` (centres undefined), under setting [1], the AC50 was 10 µM [falling, partial curve, poor fit].

For `O=C(Nc1ccc(OC(F)(F)F)cc1)Oc1ccccc1N1CCOCC1`, the AC50 under setting [1] is 35.5 µM [falling, single point].

As for `CC(C)Sc1ncnc2c1oc1ccccc12`, the concentration at half-maximal activity (AC50) under setting [1] is 14.1 µM [rising, single point].

For `Cc1ccccc1N1C(=O)NC(=O)/C(=C\c2cnn(-c3ccccc3)c2)C1=O`, under setting [1], the AC50 was 20.6 µM [rising, partial curve].

For the molecule `COc1ccc(CC(C)NC2CCCCCC2)cc1` (centres undefined), under setting [1], the concentration at half-maximal activity (AC50) is 11.2 µM [rising, single point].

Consider `Cc1cc(C)cc(N2C(=O)NC(=O)/C(=C\c3cccn3-c3ccccc3)C2=O)c1`, for which, under setting [1], the AC50 was 29.1 µM [rising, single point].

Regarding `O=C(C[N+]12CCC(CC1)C(O)C2)c1ccc(Br)cc1` (centres undefined), the AC50 under setting [1] was 0.501 µM [rising, full curve, poor fit].

In the case of `Cn1c(=O)oc2cc(S(=O)(=O)N3CCC(C(=O)N4CCN(c5ccc(F)cc5)CC4)CC3)ccc21`, the AC50 under setting [1] was 15.8 µM [falling, partial curve, poor fit].

With `CCOP(=O)(OCC)C(NC(=O)c1cccc([N+](=O)[O-])c1)C(Cl)(Cl)Cl` (centres undefined), under setting [1], the AC50 is 6.31 µM [rising, single point].

With `O=c1oc(-c2ccc(Cl)c(Cl)c2)nn1-c1ccc(C(F)(F)F)cn1`, the AC50 under setting [1] is 2 µM [rising, partial curve, poor fit].

In the case of `COc1ccc(NC(=O)N2CCC3(CC2)OCCO3)cc1`, under setting [1], the half-maximal activity concentration (AC50) is 31.6 µM [rising, single point].

As for `CCC1CCCCN1CC(=O)c1ccc(OC(F)F)cc1` (centres undefined), the AC50 by setting is: under setting [1], 29.1 µM [rising, single point]; under setting [2], 29.1 µM [falling, single point].

In the case of `CCC(=NCCOc1ccc(Cl)cc1)c1c(O)n(C)c(=O)n(C)c1=O`, the concentration at half-maximal activity (AC50) under setting [1] is 20.6 µM [falling, partial curve, poor fit].

For the molecule `COc1ccc2c(c1)c(C(=O)CN1CCC3(CC1)OCCO3)c(C)n2Cc1ccccc1`, the concentration at half-maximal activity (AC50) under setting [1] was 0.126 µM [rising, full curve, poor fit].

With `CCCCOc1ccc(CN2CCN(CCO)CC2)cc1`, the AC50 under setting [1] is 29.1 µM [rising, single point].

As to `O=c1c(/C=N/N2CCOCC2)c(O)n(-c2ccccc2)c(=S)n1-c1ccccc1`, the half-maximal activity concentration (AC50) under setting [1] was 25.9 µM [falling, single point].

Consider `CC(C)OC1CCCC(O)C1CC(=O)O` (centres undefined), for which, under setting [1], the AC50 was 14.1 µM [rising, single point].

As to `C=CCN1C(=O)C2(C(C(=O)OCC)=C(N)Oc3ccccc32)c2c1c1ccccc1oc2=O` (centres undefined), the AC50 under setting [1] is 0.461 µM [falling, partial curve].

Regarding `O=c1[nH]c(=O)n(-c2ccccc2F)c(O)c1/C=C1\C=Nc2ccccc21`, the half-maximal activity concentration (AC50) by setting is: under setting [1], 35.5 µM [rising, single point]; under setting [2], 31.6 µM [falling, single point].

`NCCNc1ccc([N+](=O)[O-])c2cccnc12`: the AC50 under setting [1] was 11.2 µM [falling, partial curve, poor fit].

`Cn1cccc1/C=C1\C(=O)NC(=O)N(CCC2=CCCCC2)C1=O`: the half-maximal activity concentration (AC50) under setting [1] was 6.51 µM [rising, single point].

Take `Cc1nc2ccccc2c(=O)n1-c1cccc(O)c1`: under setting [1], the concentration at half-maximal activity (AC50) was 29.1 µM [rising, single point].

For `O=C1NC(=O)C(=Cc2ccc(Sc3ccccc3)o2)C(=O)N1`, under setting [1], the half-maximal activity concentration (AC50) was 31.6 µM [rising, single point].

For `COC(=O)c1ccc2nc(NC(=O)C3CCCCC3)sc2c1`, the AC50 under setting [1] was 0.708 µM [falling, full curve, poor fit].

With `COC(=O)C(O)(c1ccc(NC(=O)Oc2ccccc2)cc1)C(F)(F)F` (centres undefined), the AC50 under setting [1] is 16.4 µM [rising, single point].

On to `CN1C(=O)C(=CN2CCN(C(=O)c3ccco3)CC2)C(=O)N(C)C1=S`, for which, under setting [1], the concentration at half-maximal activity (AC50) was 29.1 µM [falling, single point].

In the case of `COc1ccc(C2=CC(c3ccc(OC)c(OC)c3)c3c(c4ccccc4oc3=O)O2)cc1OC` (centres undefined), the AC50 was 12.6 µM [falling, partial curve, poor fit] under setting [1] and 12.6 µM [falling, single point] under setting [2].

In the case of `O=c1oc2ccccc2n1Cc1cccc(Cl)c1`, the half-maximal activity concentration (AC50) under setting [1] was 6.31 µM [falling, single point].

As for `Cn1c(O)c(C(=NCCN2CCCCC2)c2ccccc2Cl)c(=O)n(C)c1=O`, the concentration at half-maximal activity (AC50) under setting [1] is 35.5 µM [rising, single point].

Turning to `O=C1NC(=O)C(=Cc2ccc(N3CCN(C(=O)c4ccccc4)CC3)c([N+](=O)[O-])c2)C(=O)N1`, the half-maximal activity concentration (AC50) under setting [1] is 5.62 µM [falling, partial curve, poor fit].

As to `O=C(c1ccccc1)c1ccccc1N=Cc1c(O)[nH]c(=O)[nH]c1=O`, the half-maximal activity concentration (AC50) under setting [1] is 3.55 µM [rising, full curve].

Regarding `O=C(c1ccc(F)cc1Cl)N1CCC2(CC1)OCCO2`, under setting [1], the AC50 was 0.0891 µM [rising, full curve, poor fit].

`COc1cc(Cn2c(N)c(C(=O)NCc3ccco3)c3nc4ccccc4nc32)cc(OC)c1OC`: the AC50 under setting [1] is 2.31 µM [rising, partial curve] and the AC50 under setting [2] was 3.66 µM [falling, single point].

In the case of `COC(=O)C1=C(c2ccc(-c3ccccc3)c(F)c2)C[C@@H]2CC[C@H]1N2C(=O)NCCOc1ccccc1`, under setting [1], the AC50 is 25.9 µM [falling, single point].

`CN(C)C(=O)N1CCN(c2nc(-c3ccccc3)cs2)CC1`: the AC50 under setting [1] is 1.58 µM [rising, partial curve].

As for `CN(C)C(=O)Nc1cccc(OC(=O)N(C)C)c1`, under setting [1], the concentration at half-maximal activity (AC50) is 0.146 µM [rising, full curve, poor fit].

Regarding `Cc1ccc2c(c1)C1CN(C)CCC1N2C(=O)c1cccs1` (centres undefined), under setting [1], the half-maximal activity concentration (AC50) is 1 µM [rising, partial curve, poor fit].

Turning to `COC(=O)NC(=C(Cl)Cl)P(=O)(c1ccccc1)c1ccccc1`, the AC50 under setting [1] is 35.5 µM [rising, partial curve, poor fit].

Turning to `COC(=O)C1=C(c2ccc(F)cc2F)C[C@@H]2CC[C@H]1N2C(=O)NCCOc1ccc(OC)cc1`, the concentration at half-maximal activity (AC50) under setting [1] is 0.517 µM [falling, full curve, poor fit].

Consider `CC(C)(C)OC(=O)c1c(N)n(Cc2ccco2)c2nc3ccccc3nc12`, for which the half-maximal activity concentration (AC50) was 1.16 µM [falling, full curve, poor fit] under setting [1] and 1.84 µM [rising, partial curve, poor fit] under setting [2].

As for `c1ccc2nc(OCCN3CC3)ccc2c1`, the concentration at half-maximal activity (AC50) under setting [1] was 17.8 µM [rising, single point].

With `O=P(OCC(F)(F)C(F)F)(N1CCCCC1)N1CCCCC1`, under setting [1], the AC50 is 20.6 µM [rising, single point].

With `CCCCn1c(=O)c(C(=O)Nc2nc3ccccc3[nH]2)c(O)c2ccccc21`, the AC50 under setting [1] was 0.231 µM [falling, full curve].

Take `Cc1cccc(Cn2cccc(C(=O)Nc3cc(C)on3)c2=O)c1`: the concentration at half-maximal activity (AC50) under setting [1] is 0.0891 µM [falling, full curve, poor fit].

In the case of `COc1ccc(C(=O)N2CCCC2=O)cc1`, the concentration at half-maximal activity (AC50) under setting [1] is 22.4 µM [rising, single point].

For `COc1cc(CC2(CCc3ccncc3)C(=O)NC(=O)NC2=O)cc(OC)c1OC`, the AC50 under setting [1] was 7.08 µM [rising, partial curve].

For the molecule `COc1nc(NC(C)C)nc(NC(C)C)n1`, the AC50 under setting [1] was 29.1 µM [rising, single point].

With `COc1ccc(CCNCc2ccsc2)cc1OC`, under setting [1], the AC50 was 12.6 µM [falling, partial curve].

Consider `CN(C)C1(CNC(=O)Nc2ccc(Cl)c(Cl)c2)CCCCC1`, for which, under setting [1], the AC50 is 11.2 µM [falling, partial curve, poor fit].

Take `COP(=O)(/C=C(\Cl)c1ccccc1)/C=C(\Cl)c1ccccc1`: the concentration at half-maximal activity (AC50) under setting [1] is 17.8 µM [rising, partial curve].
